Measured values as given in patent US10716306B2, “N-alkylsulfonyl indoline compound, agricultural and horticultural insecticide comprising the compound, and method for using the insecticide” (Nihon Nohyaku Co., Ltd., priority 2016, dated 2020).
Some results were stated once for a whole list of compounds, not compound by compound.

What follows are molecules tested on Green peach aphids (Myzus persicae) (assay: Test for control efficacy on Myzus persicae). Conditions: 500 ppm, foliar application to potted Chinese cabbage plants, 6 days after the foliar application.
Type: in vivo
`CCS(=O)(=O)N1c2ccccc2CC1c1nc2cc(C(F)(F)F)cnc2n1C` (stereo not shown) [Compound 2-1, 2-(1-ethylsulfonyl-indolin-2-yl)-3-methyl-6-trifluoromethyl-3H-imidazo[4,5-b]pyridine] was tested, and the “control efficacy (control rate)” value was “A (the control rate is 100%)”. In the case of `CCS(=O)(=O)N1c2ccccc2CC1c1nc2cc(SC(F)(F)F)ccc2o1` (stereo not shown) [Compound 3-1, 2-(1-ethylsulfonyl-indolin-2-yl)-5-trifluoromethyl-thiobenzo[d]oxazole], the “control efficacy (control rate)” value is reported as “A (the control rate is 100%)”. With `CCS(=O)(=O)N1c2ccc(I)cc2CC1c1nc2cc(SC(F)(F)F)ccc2o1` (stereo not shown) [Compound 3-5, 2-(1-ethylsulfonyl-5-iodoindolin-2-yl)-5-trifluoromethyl-thiobenzo[d]oxazole] the “control efficacy (control rate)” value was “A (the control rate is 100%)”. In the case of `CCS(=O)(=O)N1c2ccc(C3CC3)cc2CC1c1nc2cc(SC(F)(F)F)ccc2o1` (stereo not shown) [Compound 3-19, 2-(1-ethylsulfonyl-5-cyclopropyl-indolin-2-yl)-5-trifluoromethyl-thiobenzo[d]oxazole], the “control efficacy (control rate)” value is reported as “A (the control rate is 100%)”.
